Experimental data: PubChem BioAssay AID1053208 (Peter MacCallum Cancer Centre, 2014)
This is a random part of about 17,000 reagents tested. 788 of all reagents (4.7%) count as active. 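Calls rest on z-score classes alone; an extra cut-off of viability at most 70% of control was not applied to them.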 Further read-outs or replicates are left out here.

- Purpose: 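Synthetic lethal interactions between gene loss and doxorubicin in osteosarcoma cells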 (primary screen)
- Cells: mouse osteosarcoma cells, early-passage culture from an engineered mouse model of fibroblastic bone tumour
- Reagents: siRNA pool against mouse genes, 40 nM
- Timing: about 120 h (48 h before drug, then 72 h with drug)
- Treatment: doxorubicin 100 nM for 72 h, roughly 30-40% inhibitory dose
- Measured: 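Luminescent ATP signal taken as viability with or without 100 nM doxorubicin for 72 h; mean of two wells set against non-targeting siRNA and turned into robust z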
- Scale: viability z-score with doxorubicin: higher = more viable cells under doxorubicin; viability z-score without drug: higher = more viable cells with knock-down alone
- Hit rule: 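a pool counts as active when its viability z-score with doxorubicin is -2 or below and its z-score without drug lies between -2 and 2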

Snrpd1 [SID152341644]
- combined z-score class: low cell count with doxorubicin only
- viability z-score with doxorubicin: -5.17
- viability z-score without drug: -1.52
- outcome: active

Ppp4r3a [SID152270494]
- combined z-score class: no change with or without drug
- viability z-score with doxorubicin: 0.22
- viability z-score without drug: 1.69
- outcome: inactive

Ifi202b [SID152286895]
- combined z-score class: no change with or without drug
- viability z-score with doxorubicin: -1.35
- viability z-score without drug: -0.34
- outcome: inactive

Zfp146 [SID152285559]
- combined z-score class: no change with or without drug
- viability z-score with doxorubicin: 0
- viability z-score without drug: 1.01
- outcome: inactive

Wdr37 [SID152301481]
- combined z-score class: no change with or without drug
- viability z-score with doxorubicin: -0.67
- viability z-score without drug: 0.17
- outcome: inactive

Tnni2 [SID152267502]
- combined z-score class: no change with or without drug
- viability z-score with doxorubicin: -0.56
- viability z-score without drug: -0.34
- outcome: inactive

Btbd35f1 [SID152287234]
- combined z-score class: no change with or without drug
- viability z-score with doxorubicin: -0.67
- viability z-score without drug: -0.84
- outcome: inactive

Ccr9 [SID152286370]
- combined z-score class: no change with or without drug
- viability z-score with doxorubicin: -0.67
- viability z-score without drug: -0.84
- outcome: inactive

Apobec1 [SID152308051]
- combined z-score class: high cell count with doxorubicin only
- viability z-score with doxorubicin: 2.02
- viability z-score without drug: -0.51
- outcome: inactive

Aspscr1 [SID152273335]
- combined z-score class: no change with or without drug
- viability z-score with doxorubicin: -1.12
- viability z-score without drug: -0.51
- outcome: inactive

Nr1h3 [SID152301942]
- combined z-score class: no change with or without drug
- viability z-score with doxorubicin: 1.57
- viability z-score without drug: -0.17
- outcome: inactive

AI597479 [SID152342708]
- combined z-score class: no change with or without drug
- viability z-score with doxorubicin: -0.34
- viability z-score without drug: -1.85
- outcome: inactive

Col26a1 [SID152272679]
- combined z-score class: no change with or without drug
- viability z-score with doxorubicin: 0.45
- viability z-score without drug: 0.84
- outcome: inactive

Grm8 [SID152327788]
- combined z-score class: high cell count with doxorubicin only
- viability z-score with doxorubicin: 2.47
- viability z-score without drug: -0.34
- outcome: inactive

Reformatted: 4 of the entries above
Ccr9 [SID152286370]: combined z-score class = no change with or without drug; viability z-score with doxorubicin = -0.67; viability z-score without drug = -0.84; outcome = inactive
Apobec1 [SID152308051]: combined z-score class = high cell count with doxorubicin only; viability z-score with doxorubicin = 2.02; viability z-score without drug = -0.51; outcome = inactive
Aspscr1 [SID152273335]: combined z-score class = no change with or without drug; viability z-score with doxorubicin = -1.12; viability z-score without drug = -0.51; outcome = inactive
Nr1h3 [SID152301942]: combined z-score class = no change with or without drug; viability z-score with doxorubicin = 1.57; viability z-score without drug = -0.17; outcome = inactive

The listing continues.
Mmd2 [SID152292505]
- combined z-score class: low cell count with and without drug
- viability z-score with doxorubicin: -3.26
- viability z-score without drug: -3.2
- outcome: inactive

Dnaja3 [SID152299462]
- combined z-score class: no change with or without drug
- viability z-score with doxorubicin: -0.79
- viability z-score without drug: 0.51
- outcome: inactive

Nrip1 [SID152300577]
- combined z-score class: no change with or without drug
- viability z-score with doxorubicin: 0.34
- viability z-score without drug: -0.51
- outcome: inactive

Tex46 [SID152315433]
- combined z-score class: no change with or without drug
- viability z-score with doxorubicin: 0.34
- viability z-score without drug: -0.17
- outcome: inactive

Pxmp4 [SID152312982]
- combined z-score class: no change with or without drug
- viability z-score with doxorubicin: -0.67
- viability z-score without drug: 1.18
- outcome: inactive

Vsig2 [SID152288702]
- combined z-score class: no change with or without drug
- viability z-score with doxorubicin: -0.67
- viability z-score without drug: 0.67
- outcome: inactive

Sntn [SID152284110]
- combined z-score class: no change with or without drug
- viability z-score with doxorubicin: -0.9
- viability z-score without drug: -1.35
- outcome: inactive

Dse [SID152270617]
- combined z-score class: no change with or without drug
- viability z-score with doxorubicin: -0.67
- viability z-score without drug: -1.18
- outcome: inactive

Thbd [SID152330415]
- combined z-score class: no change with or without drug
- viability z-score with doxorubicin: 0.67
- viability z-score without drug: 0.17
- outcome: inactive

Plcxd1 [SID152275403]
- combined z-score class: no change with or without drug
- viability z-score with doxorubicin: -0.67
- viability z-score without drug: -0.67
- outcome: inactive

Neurog1 [SID152327978]
- combined z-score class: no change with or without drug
- viability z-score with doxorubicin: -0.22
- viability z-score without drug: 0.84
- outcome: inactive

Parp2 [SID152325684]
- combined z-score class: high cell count with doxorubicin only
- viability z-score with doxorubicin: 2.25
- viability z-score without drug: 0
- outcome: inactive

Pramel37 [SID152336108]
- combined z-score class: no change with or without drug
- viability z-score with doxorubicin: 0.56
- viability z-score without drug: 0.51
- outcome: inactive

AU040320 [SID152339412]
- combined z-score class: no change with or without drug
- viability z-score with doxorubicin: 0.34
- viability z-score without drug: 0.17
- outcome: inactive
